For one assay, the target named is T1, AtCPSF160 (Arabidopsis) (UniProt Q9FGR0).
T1 sequence: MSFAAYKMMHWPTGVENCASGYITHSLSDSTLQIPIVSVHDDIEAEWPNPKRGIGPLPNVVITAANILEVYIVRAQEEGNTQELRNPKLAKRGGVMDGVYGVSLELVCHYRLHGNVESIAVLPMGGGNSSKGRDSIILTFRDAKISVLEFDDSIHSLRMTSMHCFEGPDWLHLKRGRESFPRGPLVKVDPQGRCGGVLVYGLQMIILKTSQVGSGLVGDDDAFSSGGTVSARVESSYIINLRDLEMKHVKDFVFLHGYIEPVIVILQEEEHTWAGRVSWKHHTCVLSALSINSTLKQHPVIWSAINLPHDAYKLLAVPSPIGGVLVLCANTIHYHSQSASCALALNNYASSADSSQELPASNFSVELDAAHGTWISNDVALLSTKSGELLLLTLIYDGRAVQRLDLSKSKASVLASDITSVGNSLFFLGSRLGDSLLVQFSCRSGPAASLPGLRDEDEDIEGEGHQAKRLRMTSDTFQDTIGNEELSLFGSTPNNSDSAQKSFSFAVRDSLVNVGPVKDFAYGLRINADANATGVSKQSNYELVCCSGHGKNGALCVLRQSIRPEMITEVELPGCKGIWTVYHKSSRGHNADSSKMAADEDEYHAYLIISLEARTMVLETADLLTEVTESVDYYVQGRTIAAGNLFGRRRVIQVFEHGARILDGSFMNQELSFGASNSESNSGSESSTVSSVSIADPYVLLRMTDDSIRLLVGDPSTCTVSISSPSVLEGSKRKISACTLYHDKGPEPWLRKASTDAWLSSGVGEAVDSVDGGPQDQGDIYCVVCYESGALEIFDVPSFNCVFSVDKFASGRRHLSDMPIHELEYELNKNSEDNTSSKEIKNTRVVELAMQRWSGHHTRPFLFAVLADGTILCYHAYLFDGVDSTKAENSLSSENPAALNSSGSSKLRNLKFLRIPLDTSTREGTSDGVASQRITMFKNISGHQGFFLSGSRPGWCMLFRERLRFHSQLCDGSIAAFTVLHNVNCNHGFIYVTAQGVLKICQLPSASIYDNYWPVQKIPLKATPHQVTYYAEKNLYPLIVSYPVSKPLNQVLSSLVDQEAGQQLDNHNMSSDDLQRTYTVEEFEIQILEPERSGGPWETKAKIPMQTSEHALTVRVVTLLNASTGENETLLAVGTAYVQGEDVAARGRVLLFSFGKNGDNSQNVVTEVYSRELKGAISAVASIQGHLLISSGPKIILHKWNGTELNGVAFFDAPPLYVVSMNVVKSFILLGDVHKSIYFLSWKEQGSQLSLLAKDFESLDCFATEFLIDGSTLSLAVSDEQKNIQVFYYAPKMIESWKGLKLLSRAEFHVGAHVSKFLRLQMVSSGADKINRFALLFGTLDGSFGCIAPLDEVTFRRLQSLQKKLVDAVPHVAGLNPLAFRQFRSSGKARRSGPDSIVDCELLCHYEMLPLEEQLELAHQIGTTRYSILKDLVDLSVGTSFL
Kind of assay: two-hybrid; AD (pGAD-C(1)) and BD (pGBD-C(1)) fusions in yeast PJ69-4; dual transformants tested on media lacking leucine, tryptophan and adenine; positive if all tested colonies (4 to 10) grew; both combinations of clones tested whenever possible.

The target in another assay is T2, AtFIPS3 (Arabidopsis) (UniProt F4JC20).
T2 sequence: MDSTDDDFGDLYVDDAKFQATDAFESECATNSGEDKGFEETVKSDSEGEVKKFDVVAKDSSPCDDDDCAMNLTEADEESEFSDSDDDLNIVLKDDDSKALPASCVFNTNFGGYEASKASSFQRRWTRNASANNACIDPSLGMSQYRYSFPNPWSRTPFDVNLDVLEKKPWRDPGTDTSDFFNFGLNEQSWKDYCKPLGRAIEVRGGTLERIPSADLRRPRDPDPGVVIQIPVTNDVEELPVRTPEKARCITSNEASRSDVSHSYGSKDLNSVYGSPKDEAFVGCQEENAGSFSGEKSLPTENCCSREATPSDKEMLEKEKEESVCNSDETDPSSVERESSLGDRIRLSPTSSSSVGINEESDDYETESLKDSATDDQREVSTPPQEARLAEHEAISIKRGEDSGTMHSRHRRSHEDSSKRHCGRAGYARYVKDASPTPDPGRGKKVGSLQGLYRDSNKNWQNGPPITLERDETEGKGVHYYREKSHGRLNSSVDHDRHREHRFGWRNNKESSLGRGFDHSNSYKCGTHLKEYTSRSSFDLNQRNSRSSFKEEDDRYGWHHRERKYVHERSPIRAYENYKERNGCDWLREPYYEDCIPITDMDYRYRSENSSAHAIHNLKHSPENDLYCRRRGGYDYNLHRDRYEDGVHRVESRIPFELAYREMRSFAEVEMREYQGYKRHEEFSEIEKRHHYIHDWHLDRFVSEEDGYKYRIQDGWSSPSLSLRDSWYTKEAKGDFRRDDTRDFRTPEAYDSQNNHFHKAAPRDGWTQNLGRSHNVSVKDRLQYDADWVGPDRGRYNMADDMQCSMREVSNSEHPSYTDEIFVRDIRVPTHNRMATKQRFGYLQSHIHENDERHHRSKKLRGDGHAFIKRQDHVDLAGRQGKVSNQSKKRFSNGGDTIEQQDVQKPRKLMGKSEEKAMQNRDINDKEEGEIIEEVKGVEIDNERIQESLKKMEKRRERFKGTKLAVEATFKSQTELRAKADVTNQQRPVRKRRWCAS
Described as above.

These are yes or no findings as the source states them, for the method shown. Some binding calls cover weakened binding; strength is not graded here.

B1: AtCPSF30 (protein, UniProt A9LNK9-2 1-250)
chain: MEDADGLSFDFEGGLDSGPVQNTASVPVAPPENSSSAAVNVAPTYDHSSATVAGAGRGRSFRQTVCRHWLRGLCMKGDACGFLHQFDKARMPICRFFRLYGECREQDCVYKHTNEDIKECNMYKLGFCPNGPDCRYRHAKLPGPPPPVEEVLQKIQQLTTYNYGTNRLYQARNVAPQLQDRPQGQVPMQGQPQESGNLQQQQQQQPQQSQHQVSQTLIPNPADQTNRTSHPLPQGVNRCVQSPKVFNWVL
For B1, the binding result in the assay with AtCPSF160 (Arabidopsis) and with AtFIPS3 (Arabidopsis) was “binds” each time.

Values taken from article PMC2391170.
